This is an account of results in article PMC4883783.

Sequences of proteins named here, by UniProt entry; tags and fusion partners are left off. Residues count along the entry.
UniProt O75636, residues 24-299: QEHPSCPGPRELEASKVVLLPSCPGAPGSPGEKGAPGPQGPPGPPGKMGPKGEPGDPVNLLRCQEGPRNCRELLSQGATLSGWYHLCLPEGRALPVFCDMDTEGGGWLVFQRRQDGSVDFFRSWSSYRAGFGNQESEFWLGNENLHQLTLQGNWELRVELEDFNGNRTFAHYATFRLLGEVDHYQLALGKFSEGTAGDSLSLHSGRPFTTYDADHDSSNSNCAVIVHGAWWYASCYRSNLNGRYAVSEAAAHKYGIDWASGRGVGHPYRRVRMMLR
UniProt P11226, residues 21-248: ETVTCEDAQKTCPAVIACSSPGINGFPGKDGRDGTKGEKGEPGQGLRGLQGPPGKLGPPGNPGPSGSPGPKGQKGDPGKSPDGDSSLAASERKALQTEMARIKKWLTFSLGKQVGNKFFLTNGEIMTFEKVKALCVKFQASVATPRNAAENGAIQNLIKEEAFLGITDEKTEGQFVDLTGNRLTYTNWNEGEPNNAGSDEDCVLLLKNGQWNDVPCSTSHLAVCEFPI

In the assay the target is Recombinant human ficolin-3 protein (human) (UniProt O75636). Kind of assay: SPR; Biacore T200; recombinant ficolin-3 amine-coupled to a CM5 chip (15,300 RU); reference flow cell with 12000 RU of BSA; analytes injected at 30 μl/min for 150 s; 0.01 M HEPES pH 7.4, 0.15 M NaCl, 0.005% P20, 5 mM MgCl2, 5 mM CaCl2; regeneration 0.5% SDS; both purified.

No constants are given. Whether binding was seen depends on the method and setting.

For “Recombinant human MBL protein (from UniProt P11226 21-248)”, the binding result is reported as “no binding”.
